Source: patent publication US20240108753A1 (NUNTIUS THERAPEUTICS LIMITED, priority 2021, published 2024)

Test: general procedure: peptide synthesis; TentaGel S RAM
Details: whole synthesis

Work on (KL)8(KKL)4(KKL)2KGSA-NH2 yielded an isolated yield of 5%.

Test: general procedure: peptide synthesis; TentaGel S RAM (500 mg, 0.22 mmol/g; printed for Ala-G1,2,3-KL only)
Details: whole synthesis

First: (K)8(KK)4(KK)2KGSC-NH2
Second: (KL)2KGSC-NH2
The isolated yield of the first is lower: 12% for the first, 60% for the second.

Compared with (KL)4(KKL)2KGSC-NH2, (KL)8(KKL)4(KKL)2KKLC-NH2 is lower in isolated yield: 41% for the first, 6% for the second.

Compared with (KL)8(KLK)4(KLK)2KGSC-NH2, (LK)8(KLK)4(KLK)2KGSC-NH2 is lower in isolated yield: 7% for the first, 4% for the second.

Going from (RL)4(KRL)2KGSC-NH2 to (RL)8(KRL)4(KRL)2KGSC-NH2, the isolated yield falls from 38% to 2%.

First: (kl)8(kkl)4(kkl)2kgsc-NH2
Second: PEPTIDE1{K.L.K.K.L.K.K.L.K.G.S.C.[am]}|PEPTIDE2{K.L.K.K.L.K.K.L}|PEPTIDE3{K.L.K.K.L}|PEPTIDE4{K.L.K.K.L}|PEPTIDE5{K.L}|PEPTIDE6{K.L}|PEPTIDE7{K.L}|PEPTIDE8{K.L}$PEPTIDE1,PEPTIDE2,9:R3-8:R2|PEPTIDE1,PEPTIDE3,6:R3-5:R2|PEPTIDE2,PEPTIDE4,6:R3-5:R2|PEPTIDE1,PEPTIDE5,3:R3-2:R2|PEPTIDE2,PEPTIDE6,3:R3-2:R2|PEPTIDE3,PEPTIDE7,3:R3-2:R2|PEPTIDE4,PEPTIDE8,3:R3-2:R2$$$V2.0
The isolated yield of the first is lower: 5% for the first, 9% for the second.

For RLRLKGSC-NH2, the isolated yield was 51%.

For part of these data: Strings that start with PEPTIDE1 are HELM notation: dots part the residues, brackets hold end groups and non-standard residues. Where no end group is shown, it is not given here.
